Results from the supplement of paper PMC8728848.
This is one part of the list.

Legend:
Test in all cases: glycan array binding signal (z-score within array); higher = stronger binding
Conditions in all cases: glycan notation: IUPAC condensed, linker removed; mutation: R201A
[1] = target: Gal(b1-4)GlcNAc(b1-6)Gal(b1-4)GlcNAc
Summary of the method: (§1)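 Glycan array data came from 3228 arrays in the Consortium for Functional Glycomics database, and only arrays with an available protein sequence were kept. Glycan names were put into IUPAC-condensed notation, and columns mapping to the same glycan were averaged. The binding signal is a within-array Z-score, averaged across arrays of one protein sequence run at different concentrations or buffers and across linkers. A negative Z-score can be read as non-binding.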

[2] = target: Gal(b1-4)GlcNAc(b1-6)GalNAc
Summary of the method: as §1

[3] = target: Gal(b1-4)GlcNAc(b1-6)[Gal(b1-3)]GalNAc
Summary of the method: as §1

[4] = target: Gal(b1-4)GlcNAc(b1-6)[Gal(b1-4)GlcNAc(b1-3)]GalNAc
Summary of the method: as §1

[5] = target: Gal(b1-4)GlcNAc6P
Summary of the method: as §1

[6] = target: Gal(b1-6)Gal
Summary of the method: as §1

[7] = target: Gal3S(b1-3)GalNAc
Summary of the method: as §1

[8] = target: Gal3S(b1-3)GlcNAc
Summary of the method: as §1

[9] = target: Gal3S(b1-3)[Fuc(a1-4)]GlcNAc
Summary of the method: as §1

[10] = target: Gal3S(b1-4)Glc
Summary of the method: as §1

[11] = target: Gal3S(b1-4)Glc6S
Summary of the method: as §1

[12] = target: Gal3S(b1-4)GlcNAc
Summary of the method: as §1

[13] = target: Gal3S(b1-4)[Fuc(a1-3)]Glc6S
Summary of the method: as §1

[14] = target: Gal3S(b1-4)[Fuc(a1-3)]GlcNAc
Summary of the method: as §1

[15] = target: Gal3S(b1-4)[Fuc(a1-3)]GlcNAc6S
Summary of the method: as §1

[16] = target: Gal3S4S(b1-4)GlcNAc
Summary of the method: as §1

[17] = target: Gal3S6S(b1-4)GlcNAc
Summary of the method: as §1

[18] = target: Gal3S6S(b1-4)GlcNAc6S
Summary of the method: as §1

[19] = target: Gal4S(b1-4)GlcNAc
Summary of the method: as §1

[20] = target: Gal4S6S(b1-4)GlcNAc
Summary of the method: as §1

[21] = target: Gal6P(b1-4)GlcNAc
Summary of the method: as §1

[22] = target: Gal6S(b1-3)GlcNAc
Summary of the method: as §1

[23] = target: Gal6S(b1-3)GlcNAc6S
Summary of the method: as §1

[24] = target: Gal6S(b1-4)Glc
Summary of the method: as §1

[25] = target: Gal6S(b1-4)Glc6S
Summary of the method: as §1

[26] = target: Gal6S(b1-4)GlcNAc
Summary of the method: as §1

[27] = target: Gal6S(b1-4)GlcNAc6S
Summary of the method: as §1

[28] = target: GalNAc(a1-3)Gal
Summary of the method: as §1

[29] = target: GalNAc(a1-3)GalNAc
Summary of the method: as §1

[30] = target: GalNAc(a1-3)GalNAc(b1-3)Gal(a1-4)Gal(b1-4)Glc
Summary of the method: as §1

[31] = target: GalNAc(a1-3)GalNAc(b1-3)Gal(a1-4)Gal(b1-4)GlcNAc
Summary of the method: as §1

[32] = target: GalNAc(b1-3)Gal
Summary of the method: as §1

[33] = target: GalNAc(b1-3)Gal(a1-4)Gal(b1-4)GlcNAc
Summary of the method: as §1

[34] = target: GalNAc(b1-3)Gal(a1-4)Gal(b1-4)GlcNAc(b1-3)Gal(b1-4)Glc
Summary of the method: as §1

[35] = target: GalNAc(b1-3)Gal(a1-6)Gal(b1-4)Glc
Summary of the method: as §1

[36] = target: GalNAc(b1-3)GalNAc
Summary of the method: as §1

[37] = target: GalNAc(b1-3)GlcNAc
Summary of the method: as §1

[38] = target: GalNAc(b1-4)Gal(b1-4)Glc
Summary of the method: as §1

B1: OS9 (Arabidopsis thaliana) (protein)
chain: MRGSHHHHHHGMASMTGGQQMGRDLYDDDDKSRLQIFPAHLVGTFSRNNREPKYKIEFLPEDSPFHPGDNLESMVMLDKHGNRFLCYLPKEEKATSGWTSSQQNISTVMMETQQLVKLKTPDELLQPLSEKCLFRQEGWWSYEFCHQKYVRQLHVEDENKIVQEFFLGTFDPEATAAFNQTVSDASTDASQRYHSHVYTNGTTCDLTGSPAEVEVRFVCAETRAMVTSITELSTCKYALTVQCPTLCKHPLFQLEKPVSHTIHCNAIPVEEDATRNKEEQAVDESPKMIADS
- glycan array binding signal (z-score) [1]: 0.841
- glycan array binding signal (z-score) [2]: 0.21
- glycan array binding signal (z-score) [3]: 0.112
- glycan array binding signal (z-score) [4]: -0.077
- glycan array binding signal (z-score) [5]: -0.112
- glycan array binding signal (z-score) [6]: 1.58
- glycan array binding signal (z-score) [7]: 0.079
- glycan array binding signal (z-score) [8]: -0.032
- glycan array binding signal (z-score) [9]: 0.166
- glycan array binding signal (z-score) [10]: -0.625
- glycan array binding signal (z-score) [11]: -0.239
- glycan array binding signal (z-score) [12]: -0.911
- glycan array binding signal (z-score) [13]: 1.23
- glycan array binding signal (z-score) [14]: 0.126
- glycan array binding signal (z-score) [15]: -0.567
- glycan array binding signal (z-score) [16]: -0.345
- glycan array binding signal (z-score) [17]: 1.25
- glycan array binding signal (z-score) [18]: 3.98
- glycan array binding signal (z-score) [19]: -0.448
- glycan array binding signal (z-score) [20]: 1.44
- glycan array binding signal (z-score) [21]: -0.208
- glycan array binding signal (z-score) [22]: -0.366
- glycan array binding signal (z-score) [23]: -0.439
- glycan array binding signal (z-score) [24]: 0.78
- glycan array binding signal (z-score) [25]: 0.922
- glycan array binding signal (z-score) [26]: 1.05
- glycan array binding signal (z-score) [27]: 1.9
- glycan array binding signal (z-score) [28]: 1.39
- glycan array binding signal (z-score) [29]: 0.827
- glycan array binding signal (z-score) [30]: 0.338
- glycan array binding signal (z-score) [31]: -0.114
- glycan array binding signal (z-score) [32]: -0.932
- glycan array binding signal (z-score) [33]: 2.17
- glycan array binding signal (z-score) [34]: 0.058
- glycan array binding signal (z-score) [35]: 0.217
- glycan array binding signal (z-score) [36]: -1.08
- glycan array binding signal (z-score) [37]: -0.41
- glycan array binding signal (z-score) [38]: 1.1
